Test results as given in publication PMC3744504.
Numbering of substitutions follows the chain as printed. Numbers in names are those of the source. Results are given in words; binding and its absence hold for the method and conditions named. Sequences can lack the tags named with a protein. Blank lines part the entries; values can stand above or below the binder they belong to.

What was measured:
[1] = target: 2xmut hQPCT (Y115E-Y117E), Ala33-Leu361, His6-tagged (human) (UniProt Q16769); assay: SEC; HiLoad 16/60 Superdex 75 column after Ni-affinity; 150 mM NaCl, 50 mM Tris, pH 8; both purified
[2] = target: 6xmut hQPCT (Y115E-Y117E-S119A-S121A-W149D-N150P), Ala33-Leu361, His6-tagged (human) (UniProt Q16769); assay: as above

binding [1]: no binding
B1: 2xmut hQPCT (Y115E-Y117E), Ala33-Leu361, His6-tagged (enzyme, UniProt Q16769 33-361)
chain: ASAWPEEKNYHQPAILNSSALRQIAEGTSISEMWQNDLQPLLIERYPGSPGSYAARQHIMQRIQRLQADWVLEIDTFLSQTPEGERSFSNIISTLNPTAKRHLVLACHYDSKYFSHWNNRVFVGATDSAVPCAMMLELARALDKKLLSLKTVSDSKPDLSLQLIFFDGEEAFLHWSPQDSLYGSRHLAAKMASTPHPPGARGTSQLHGMDLLVLLDLIGAPNPTFPNFFPNSARWFERLQAIEHELHELGLLKDHSLEGRYFQNYSYGGVIQDDHIPFLRRGVPVLHLIPSPFPEVWHTMDDNEENLDESTIDNLNKILQVFVLEYLHL

binding [2]: no binding
B2: 6xmut hQPCT (Y115E-Y117E-S119A-S121A-W149D-N150P), Ala33-Leu361, His6-tagged (enzyme, UniProt Q16769 33-361)
chain: B1 chain with S87A, S89A, W117D, N118P
